Here are results for ten molecules from PubChem BioAssay AID248 (DTP/NCI, 2004).

The assay concerns L1210 leukemia ip in BDF1 mice, survival T/C. Kind of assay: NCI In Vivo Anticancer Drug Screen. Data for tumor model L1210 Leukemia (intraperitoneal) in B6D2F1 (BDF1) mice. The conditions noted are these: T/C endpoint: mean survival time, higher T/C = longer survival.
The mark [1] stands for this setting: dose: 400.0 mg/kg/injection, schedule: Q01DX001 (ip), vehicle: saline.

The list does not hold the whole screen: it is rich in T/C values a quarter to a half above the control, in often repeated tests (any T/C) and in doses without a T/C. Further doses and runs are listed elsewhere. T/C gives the treated animals as a percentage of the vehicle group. Some entries give survivors of the animals treated and no T/C: the source files T/C as zero there, which appears to mark a toxic dose or a test without result, not a measured value. Some doses without a T/C left all or most animals alive at the check, yet need not have been tolerated: the source hardly ever lists a survival T/C far under the control, and the zero likely stands for such cases as well. Counts of survivors are from the toxicity check (mostly the fifth day) where no day follows; animals may have died later. Schedule codes are those of the source, read here as Q, the interval in days (D) or hours (H), X, the number of doses. Where survival is the endpoint, this PubChem deposit counts one and a half times the control or more as active, and values a quarter to a half above the control carry no call in these data; other NCI protocols may use other cut-offs. Some T/C values are followed by the survivors on the day toxicity was checked, most often the fifth; without a count, all were alive then.

Take `O=C1C(Br)C(Br)C(=O)N1c1ccccc1F` (stereo not given): the survivor count (dose: 50.0 mg/kg/injection, schedule: Q01DX009 (ip), vehicle: other) is given as 2 of 6; the survivor count (dose: 100.0 mg/kg/injection, schedule: Q01DX009 (ip), vehicle: other) is 0 of 6; the survivor count (dose: 200.0 mg/kg/injection, schedule: Q01DX009 (ip), vehicle: other) is listed as 0 of 6; the survivor count (dose: 400.0 mg/kg/injection, schedule: Q01DX009 (ip), vehicle: other) is recorded as 0 of 6.
As for `CC1CCC(=O)OCCCC(=O)C1` (stereo not given), where the note is “dose: 200.0 mg/kg/injection, schedule: Q01DX001 (ip), vehicle: saline”, the survivor count is listed as 4 of 4.
For the molecule `Cc1cccc(Cl)c1NC(=O)c1c(Cl)c(Cl)c(Cl)c(Cl)c1C(=O)O`, the survivor count (dose: 400.0 mg/kg/injection, schedule: Q04DX002 (ip), vehicle: Klucel (hydroxypropylcellulose) (HPC)) is reported as 3 of 3.
For `CCOC(=O)C(=O)C1CCCCC1=O` (stereo not given), under setting [1], the survivor count is on record as 2 of 4.
On to `O=C(Cl)/C=C/c1c(Cl)cccc1Cl`, for which the survivor count (dose: 400.0 mg/kg/injection, schedule: Q04DX003 (ip), vehicle: Klucel (hydroxypropylcellulose) (HPC)) was 0 of 6.
As for `O=C(NCCCNC(=O)Nc1ccc(C2=NCCCN2)cc1)Nc1ccc(C2=NCCCN2)cc1`, the survivor count runs as follows: (dose: 40.0 mg/kg/injection, schedule: Q01DX015 (ip), vehicle: methylcellulose (MC)) 1 of 6; (dose: 80.0 mg/kg/injection, schedule: Q01DX015 (ip), vehicle: methylcellulose (MC)) 0 of 6.
For the molecule `O=C(Nc1ccc(Cl)c(Cl)c1)OCCCl`, for the setting “dose: 300.0 mg/kg/injection, schedule: Q01DX001 (ip), vehicle: saline”, the survivor count is reported as 3 of 6.
Consider `CC[S+](CC)CC`, for which, where the note is “dose: 400.0 mg/kg/injection, schedule: Q04DX003 (ip), vehicle: saline”, the survivor count is 1 of 6.
With `C1OC1CN1CCN(CC2CO2)CC1` (stereo not given), the T/C was 135 % of control (dose: 2.7 mg/kg/injection, schedule: Q01DX009 (ip), vehicle: saline); 137 % of control (dose: 4.0 mg/kg/injection, schedule: Q03HX024 (ip), vehicle: saline); 129 % of control (dose: 4.1 mg/kg/injection, schedule: Q01DX009 (ip), vehicle: saline); 131 % of control (dose: 6.25 mg/kg/injection, schedule: Q01DX009 (ip), vehicle: saline); 136 % of control (dose: 7.0 mg/kg/injection, schedule: Q01DX009 (ip), vehicle: saline); 128 % of control (dose: 8.0 mg/kg/injection, schedule: Q01DX009 (ip), vehicle: saline). Further, the T/C reads like this: (dose: 12.5 mg/kg/injection, schedule: Q01DX009 (ip), vehicle: saline) 148 % of control; (dose: 16.0 mg/kg/injection, schedule: Q01DX001 (ip), vehicle: saline) 126 % of control; (dose: 16.0 mg/kg/injection, schedule: Q01DX009 (ip), vehicle: saline) 144 % of control; (dose: 16.0 mg/kg/injection, schedule: Q01DX009 (oral), vehicle: saline) 127 % of control; (dose: 16.0 mg/kg/injection, schedule: Q04DX003 (ip), vehicle: saline) 133 % of control; (dose: 16.0 mg/kg/injection, schedule: Q08DX002 (ip), vehicle: saline) 127 % of control. The T/C was 131 % of control (dose: 32.0 mg/kg/injection, schedule: Q01DX001 (ip), vehicle: saline); 130 % of control (dose: 32.0 mg/kg/injection, schedule: Q01DX009 (sc), vehicle: saline); 146 % of control (dose: 32.0 mg/kg/injection, schedule: Q08DX002 (ip), vehicle: saline); 140 % of control (dose: 37.5 mg/kg/injection, schedule: Q01DX009 (ip), vehicle: saline); 139 % of control [9 of 10 alive] (dose: 128.0 mg/kg/injection, schedule: Q01DX001 (oral), vehicle: saline). Also, the survivor count by setting is: (dose: 8.0 mg/kg/injection, schedule: Q03HX024 (ip), vehicle: saline) 8 of 10; (dose: 16.0 mg/kg/injection, schedule: Q03HX008 (ip), vehicle: saline) 1 of 10; (dose: 16.0 mg/kg/injection, schedule: Q03HX016 (ip), vehicle: saline) 0 of 10; (dose: 16.0 mg/kg/injection, schedule: Q03HX024 (ip), vehicle: saline) 1 of 10; (dose: 32.0 mg/kg/injection, schedule: Q03HX008 (ip), vehicle: saline) 1 of 10; (dose: 32.0 mg/kg/injection, schedule: Q03HX024 (ip), vehicle: saline) 0 of 10. For the same molecule, the survivor count reads like this: (dose: 50.0 mg/kg/injection, schedule: Q01DX009 (ip), vehicle: saline) 6 of 6; (dose: 64.0 mg/kg/injection, schedule: Q01DX001 (ip), vehicle: saline) 4 of 10; (dose: 64.0 mg/kg/injection, schedule: Q01DX009 (ip), vehicle: saline) 3 of 10; (dose: 64.0 mg/kg/injection, schedule: Q04DX003 (ip), vehicle: saline) 8 of 10; (dose: 64.0 mg/kg/injection, schedule: Q08DX002 (ip), vehicle: saline) 4 of 10; (dose: 100.0 mg/kg/injection, schedule: Q01DX009 (ip), vehicle: saline) 4 of 6. Also, the survivor count reads like this: (dose: 128.0 mg/kg/injection, schedule: Q01DX001 (ip), vehicle: saline) 2 of 10; (dose: 128.0 mg/kg/injection, schedule: Q01DX009 (ip), vehicle: saline) 1 of 10; (dose: 128.0 mg/kg/injection, schedule: Q01DX009 (oral), vehicle: saline) 9 of 10; (dose: 128.0 mg/kg/injection, schedule: Q01DX009 (sc), vehicle: saline) 9 of 10; (dose: 128.0 mg/kg/injection, schedule: Q04DX003 (ip), vehicle: saline) 3 of 10; (dose: 128.0 mg/kg/injection, schedule: Q08DX002 (ip), vehicle: saline) 0 of 10. Also, the survivor count is listed as 2 of 6 (dose: 200.0 mg/kg/injection, schedule: Q01DX009 (ip), vehicle: saline); 2 of 10 (dose: 256.0 mg/kg/injection, schedule: Q01DX001 (ip), vehicle: saline); 0 of 10 (dose: 256.0 mg/kg/injection, schedule: Q01DX001 (oral), vehicle: saline); 1 of 10 (dose: 256.0 mg/kg/injection, schedule: Q04DX003 (ip), vehicle: saline); 2 of 6 (dose: 270.0 mg/kg/injection, schedule: Q01DX001 (ip), vehicle: saline); 4 of 6 under setting [1]. Further, the survivor count (dose: 800.0 mg/kg/injection, schedule: Q01DX001 (ip), vehicle: saline) was 0 of 6.
Regarding `COc1ccc2c(c1)C(=O)CCN2`, the survivor count (dose: 400.0 mg/kg/injection, schedule: Q01DX009 (ip), vehicle: Klucel (hydroxypropylcellulose) (HPC)) was 1 of 6.
